These are yes or no findings as the source states them, for the method shown. Some entries that bind do so weakly or less than the wild type. For some assays here: Tags and fused reporters may be left off the sequences shown.
T1: YEATS2 (human) (UniProt Q9ULM3)
T1 sequence: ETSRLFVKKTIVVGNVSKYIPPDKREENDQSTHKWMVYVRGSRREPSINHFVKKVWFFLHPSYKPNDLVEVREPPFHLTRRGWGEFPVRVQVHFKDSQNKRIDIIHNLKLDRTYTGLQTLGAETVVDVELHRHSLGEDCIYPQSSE

The chains behind the UniProt entries cited, without tags or fusion partners. Residues count along the entry.
UniProt O95619, residues 15-158: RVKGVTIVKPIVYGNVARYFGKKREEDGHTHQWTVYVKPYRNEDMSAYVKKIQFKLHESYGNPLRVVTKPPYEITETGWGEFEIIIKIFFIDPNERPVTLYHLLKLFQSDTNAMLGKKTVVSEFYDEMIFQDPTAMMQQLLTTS

T2: 6x His-tagged ENL YEATS domain (human, UniProt Q03111 1-138)
T2 sequence (looked up): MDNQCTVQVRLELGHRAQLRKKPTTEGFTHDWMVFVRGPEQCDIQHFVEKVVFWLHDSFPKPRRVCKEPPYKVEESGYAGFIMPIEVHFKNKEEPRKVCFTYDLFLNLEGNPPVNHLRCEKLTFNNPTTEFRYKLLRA


Legend:
YEATS2 (human) = molecular target: T1, YEATS2 (human); test: BLI
GAS41 (human) = GAS41 (human) (UniProt O95619); test: BLI
[1] = molecular target: T2, 6x His-tagged ENL YEATS domain; test: BLI
[2] = molecular target: T2, 6x His-tagged ENL YEATS domain; test: AlphaScreen or HTRF

Row | binding [2] | Binder | also measured
1 | – | VYCYK (N-terminal acetyl; N^ε-2-furancarbonyl-L-lysine (FurK) at position 5) [tENL-S1f] | binding (YEATS2 (human)): no binding (tested: 10 μM); binding (GAS41 (human)): no binding (tested: 10 μM); binding [1]: binds
2 | binds | YAVYCYK (N^ε-butyryl-L-lysine (BuK) at position 7) [ENL-S1 with the 2nd residue (aspartic acid) replaced by alanine] | –
3 | no binding | YDVYCAK (N^ε-butyryl-L-lysine (BuK) at position 7) [ENL-S1 with the 6th residue (tyrosine) replaced by alanine] | –
4 | binds | YDVACYK (N^ε-butyryl-L-lysine (BuK) at position 7) [ENL-S1 with the 4th residue (tyrosine) replaced by alanine] | –
5 | binds | ADVYCYK (N^ε-butyryl-L-lysine (BuK) at position 7) [ENL-S1 with the 1st residue (tyrosine) replaced by alanine] | –
6 | no binding | YDVYCYA [ENL-S1 with BuK replaced by alanine] | –

From publication doi:10.1101/2023.01.08.523168 (bioRxiv, 2023)
